# Patent US10647700B2, “EZH2 inhibitor and use thereof” (TARAPEUTICS SCIENCE INC., priority 2017, dated 2020)
# System: H3K27m3 methylation in Pfeiffer cells
# Test: Western Blot of H3K27m3 methylation in Pfeiffer cells
# Type: cell-based
# Settings: Homo sapiens, 72 hours treatment, H3K27m3 methylation by Western Blot
# Method: Meanwhile, the inventors further conducted Western Blot with Pfeiffer cells (purchased from ATCC, USA) for verification. […] Effect of compounds on H3K27m3 methylation in cells was assessed.
smiles,measurement,value
"CCN(c1cc(-c2ccc(CN3CCOCC3)cc2)cc(C(=O)NCc2c(C)cc(C)[nH]c2=O)c1C)C1CCOCC1 [EPZ6438, reference compound]",IC50,0.037 µM
